Screen size: about 310,000 compounds; about 17,000 (5.5%) were called active. Inconclusive results, whose numbers are uncertain, are shown with a selection of clear calls. Calls come from the whole dose curve; as a rule, active = well fitted inhibition curve with a large enough effect; inconclusive = small, poorly fitted or top-dose-only effect, or effect the other way; inactive = no such curve, though single readings can be large or run the other way. Potencies of inconclusive entries are doubtful fits and often do not repeat.
target: Nuclear receptor ROR-gamma (Mus musculus) (UniProt P51450); experiment: qHTS for inhibitors of ROR gamma transcriptional activity; conditions: Drosophila S2 Gal4-RORgamma UAS-luciferase reporter, 20 h; activity change, negative = inhibition: at 53.6 µM (top of the series); note: nearly all actives have a fitted effect of over 60% in size
Summary of the method: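 A Gal4/UAS one-hybrid system in insect cells: metallothionein-promoter Gal4–ROR gamma fusion plus Photinus luciferase reporter. Copper sulfate 700 uM final, 20 hr ambient incubation, luminescent detection after 10 min with reagent.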
% is set by controls: 0 for no effect and ±100 for the full control effect; potency is the fitted concentration of half-maximal effect.

By UniProt entry, the sequences of proteins in these tests, tags left out. Where a name states a change or a piece, a line headed by the entry shows the natural chain unless it says otherwise.
UniProt P51450: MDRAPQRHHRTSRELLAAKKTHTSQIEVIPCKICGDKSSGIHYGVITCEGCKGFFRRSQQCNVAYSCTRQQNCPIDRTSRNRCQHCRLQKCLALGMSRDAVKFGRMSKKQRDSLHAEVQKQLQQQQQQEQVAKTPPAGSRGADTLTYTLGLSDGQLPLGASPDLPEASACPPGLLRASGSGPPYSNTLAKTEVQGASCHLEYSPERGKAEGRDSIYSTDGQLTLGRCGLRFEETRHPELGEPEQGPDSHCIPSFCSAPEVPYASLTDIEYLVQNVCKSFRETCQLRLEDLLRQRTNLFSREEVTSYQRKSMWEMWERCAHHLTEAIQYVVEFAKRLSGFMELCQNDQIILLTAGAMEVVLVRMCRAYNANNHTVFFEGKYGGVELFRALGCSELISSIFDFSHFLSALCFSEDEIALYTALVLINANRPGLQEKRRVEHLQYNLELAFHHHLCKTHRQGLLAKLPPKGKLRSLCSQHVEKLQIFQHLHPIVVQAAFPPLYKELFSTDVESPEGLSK

Potency, inconclusive:
COc1ccc(-c2nc(CCNC(=O)c3ccc(Br)o3)cs2)cc1 3.98 µM [activator, full curve], S=C(Nc1ccc(Cl)cc1Cl)N1CCCC1 25.1 µM [inhibitor, single point], COc1ccc(C2CC(=O)c3c(C)nc(N4CCN(c5ccccc5)CC4)nc3C2)cc1 (centres undefined) 35.5 µM [inhibitor, single point], O=C(Nc1ccccc1N1CCN(C(=O)c2ccccc2)CC1)c1ccc(Br)o1 11.2 µM [inhibitor, single point], O=C(Cc1ccccc1)N/N=C/c1ccccc1Cl 35.5 µM [activator, single point], O=c1oc2ccccc2cc1-c1nc2ccccc2o1 11.2 µM [inhibitor, single point], COC(=O)C1=C(C)N(Cc2ccccc2)C(=NCc2cccc(Cl)c2)N[C@H]1c1cccc(F)c1 35.5 µM [inhibitor, single point], CC1(c2ccc3ccccc3c2)NC(=O)N(CC(=O)N2CCN(S(=O)(=O)c3ccccc3F)CC2)C1=O (centres undefined) 35.5 µM [activator, single point], CCN(CC)S(=O)(=O)c1cc(NC(=O)Cc2ccsc2)ccc1C 35.5 µM [activator, partial curve], CC1CN(C(=O)c2cc([N+](=O)[O-])cc([N+](=O)[O-])c2)CC(C)O1 (centres undefined) 35.5 µM [inhibitor, single point], Cc1ccc2c(c1)N(CC(=O)N(Cc1ccccn1)Cc1ccco1)C(=O)C(C(C)C)O2 (centres undefined) 7.94 µM [activator, partial curve], COc1ccc(COC(=O)C2=C(C)NC(=O)NC2c2ccc(OC)c(OC)c2)cc1 (centres undefined) 20 µM [activator, partial curve, poor fit], COC(=O)c1c(-c2ccc3ccccc3c2)csc1NC(=O)Cc1ccc(OC)c(OC)c1 8.91 µM [activator, partial curve], NC(=O)c1ccsc1NC(=O)CSc1nnc(Nc2ccccc2)s1 10 µM [activator, partial curve], O=C(Cn1nc2ccccc2n1)N/N=C/c1cc([N+](=O)[O-])ccc1O 35.5 µM [inhibitor, single point], CCOC(=O)c1sc(=S)n(C)c1NC(=O)c1ccc(C(C)(C)C)cc1 28.2 µM [activator, single point], O=c1cc(Cl)[nH]c(=O)n1CCNc1ncc(C(F)(F)F)cc1Cl 22.4 µM [activator, single point], CSc1ncc(C(=O)Nc2ccccc2)cn1 11.2 µM [activator, partial curve], O=[N+]([O-])c1ccc(N/N=C/c2ccccc2)c(F)c1 5.62 µM [activator, partial curve], O=C1Nc2ccc(Br)cc2/C1=C/C1CC=CCC1 (centres undefined) 25.1 µM [inhibitor, single point], O=C(CCS(=O)(=O)c1cc(Br)cc2c1N(C(=O)C1CC1)CC2)NCc1ccco1 35.5 µM [inhibitor, single point], CCCn1c(=O)n(C)c(=O)c2c(SCC(=O)NCC(c3ccccc3)N(C)C)nc(CC(C)C)nc21 (centres undefined) 1.26 µM [inhibitor, single point], CC(=O)N1CCc2cc(S(=O)(=O)NC3CCCc4ccccc43)ccc21 (centres undefined) 12.6 µM [activator, partial curve], COc1ccccc1C(=O)NC(=S)Nc1ccc(NC(=O)c2ccco2)cc1 17.8 µM [inhibitor, partial curve, poor fit], Cc1ccc(NC(=O)CSc2nnc(-c3cnccn3)n2Cc2ccco2)cc1 35.5 µM [inhibitor, single point], CCCCn1c(CNC(=O)Cc2ccccc2)nc2ccccc21 35.5 µM [inhibitor, single point], Cc1n[nH]c(=S)n1/N=C/c1ccccc1 17.8 µM [inhibitor, single point], CC(C)(C)c1ccc(/C=C2\Oc3cc(O)ccc3C2=O)cc1 22.4 µM [inhibitor, single point], CC(C)C(NC(=O)CN1C(=O)c2cccc3cccc1c23)C(C)C 0.112 µM [inhibitor, single point], COc1ccc(/C=C2\SC(=S)N(CCC(=O)Nc3cccc(C(=O)O)c3)C2=O)cc1 35.5 µM [inhibitor, single point], COc1ccccc1C(CCNS(=O)(=O)c1ccc(C)cc1)c1ccco1 (centres undefined) 7.08 µM [activator, partial curve, poor fit], Cc1ccc(C(=O)c2ccccc2C(=O)OCC(=O)NCCc2ccccc2)cc1 7.94 µM [activator, partial curve], COc1ccc(/C=N/NC(=O)CCCOc2ccc(Cl)cc2Cl)cc1[N+](=O)[O-] 3.55 µM [activator, single point], CC(C)CC(COCc1ccc(Cl)cc1)N1CCN(C(=O)c2ccc(Cl)cc2Cl)CCC1=O (centres undefined) 2.51 µM [activator, partial curve, poor fit], Cc1cc(C=O)c(C)n1-c1cc(C(F)(F)F)ccc1N1CCOCC1 11.2 µM [activator, partial curve], CN(C)c1c([N+](=O)[O-])cc2[nH]c(=O)[nH]c2c1[N+](=O)[O-] 35.5 µM [inhibitor, single point], Cc1ccc(-c2nc3ncccn3c2Nc2ccc3c(c2)OCO3)o1 6.31 µM [activator, single point], CCCCOc1ccc(C2CC(=O)N(C)C2=O)cc1 (centres undefined) 14.1 µM [inhibitor, single point], O=C(Nc1nc(-c2nc3ccccc3s2)cs1)c1ccco1 5.01 µM [activator, partial curve], CC(C)(C)c1ccc(/C=C/C(=O)NC2CCS(=O)(=O)C2)cc1 (centres undefined) 20 µM [inhibitor, single point]

Potency, active:
c1ccc2[nH]c(CSc3nc4ccccc4s3)nc2c1 20 µM, CCCCCN1C=CC(=C2C(=O)c3ccccc3C2=O)C=C1 1.12 µM, N#Cc1ncc(-c2ccc3c(c2)OCCOCCOCCOCCO3)nc1C#N 12.6 µM, CCOC(=O)C1=C(C)C(c2ccccc2OC)NC(=S)N1 (centres undefined) 2.82 µM, Fc1ccc(NC(=S)NCCc2ccc(Cl)cc2)cc1 1.12 µM, CCn1c(-c2cccc(Br)c2)n[nH]c1=S 10 µM, Cc1ccc(C(=O)CN2C(=O)c3ccccc3S2(=O)=O)cc1 2.24 µM, CCN(CC)CCOC(=O)c1ccc(NC(=O)CCCN2C(=O)/C(=C\c3cccs3)SC2=S)cc1 11.2 µM, Cc1nc(C(=O)NNC(=O)c2cccc(Cl)c2)c(C(F)(F)F)o1 8.91 µM, C/C(=N\NC(=O)c1ccc(C)cc1)c1c(C)[nH]n(-c2ccccc2)c1=O 1.26 µM, Cc1c(Cl)cccc1NC(=S)NCc1ccc(F)cc1 2.24 µM, CN1C(=O)/C(=C/c2cc3c(cc2Br)OCO3)NC1=S 4.47 µM, CN(CCc1cn[nH]c1)Cc1nc(C(c2ccccc2)c2ccccc2)no1 10 µM, CC(C)c1ccccc1NC(=S)N1CCN(Cc2ccc3c(c2)OCO3)CC1 11.2 µM, On1onc2c3cc(-c4ccccc4)nc3ccc21 7.94 µM, CCn1c(-c2ccoc2C)n[nH]c1=S 11.2 µM, Cc1ccc(O)c(NC(=S)NC(=O)c2ccccc2Cl)c1 3.55 µM

Activity change, negative = inhibition, inactive:
Cc1cnc(NC(=O)Nc2ccccc2)c(C)n1 26.9%, O=C(Nc1ccc(NC(=O)c2cc([N+](=O)[O-])ccc2N2CCOCC2)cc1)c1cccs1 -0.704%, CC1(C)CC(=O)C2=C(C1)NCN(Cc1ccccc1)C2 -3.69%, Cc1cc(NC(=O)COC(=O)CCNS(=O)(=O)c2c(Cl)cccc2Cl)no1 15.3%, Cc1cnc(CNc2cc(-c3ccccc3CN(C)C)ncn2)cn1 -8.9%, O=C(c1ccc(Cl)c(S(=O)(=O)N2CCCCC2)c1)N1CCCCCC1 3.79%, O=C(NC1CCCCC1)C(c1ccco1)N(C(=O)c1csnn1)c1cccc(F)c1 (centres undefined) -0.512%, CC(NS(=O)(=O)c1ccc(Cl)cc1)C(=O)N1CCOCC1 (centres undefined) -8.62%, CCSc1nc(N2CCOCC2)c2c(c1C#N)CCCC2 3.69%, O=C(O)CC(c1ccccc1F)N1Cc2ccccc2C1=O (centres undefined) 13.5%, CCCCNc1nc(C)nc2c1nc(-c1ccccc1)n2CCCN(C)C -0.273%, Oc1cccc(/C=N\Nc2nncc(-c3ccccc3)n2)c1 -6.22%, Cn1c(/C=C/c2cccc([N+](=O)[O-])c2)nc2ccccc2c1=O 3.43%, CCn1c(SCC(=O)Nc2ccc3c(c2)c2ccccc2n3CC)nnc1-c1ccco1 24.1%, O=C(OCn1ncc(Cl)c(Cl)c1=O)c1cccc(C(F)(F)F)c1 -5.55%, CC1(C)C2(C#N)C(N)=NC3(OCCO3)C12C#N (centres undefined) -13.3%, COc1ccc(NC(=O)CCNS(=O)(=O)c2ccc(C)c(C)c2)cc1OC 10%

— PubChem BioAssay AID2551 (National Center for Advancing Translational Sciences (NCATS), 2010)
